Laboratory results from paper PMC10846047.
These are yes or no findings as the source states them, for the method shown. In cells and extracts the contact can be indirect. Here binding means that the protein was enriched with, or labelled near, the bait; the list need not be complete.

B1: STT3 oligosaccharyltransferase complex catalytic subunit B (STT3B) (protein, UniProt Q8TCJ2 1-826)
chain: MAEPSAPESKHKSSLNSSPWSGLMALGNSRHGHHGPGAQCAHKAAGGAAPPKPAPAGLSGGLSQPAGWQSLLSFTILFLAWLAGFSSRLFAVIRFESIIHEFDPWFNYRSTHHLASHGFYEFLNWFDERAWYPLGRIVGGTVYPGLMITAGLIHWILNTLNITVHIRDVCVFLAPTFSGLTSISTFLLTRELWNQGAGLLAACFIAIVPGYISRSVAGSFDNEGIAIFALQFTYYLWVKSVKTGSVFWTMCCCLSYFYMVSAWGGYVFIINLIPLHVFVLLLMQRYSKRVYIAYSTFYIVGLILSMQIPFVGFQPIRTSEHMAAAGVFALLQAYAFLQYLRDRLTKQEFQTLFFLGVSLAAGAVFLSVIYLTYTGYIAPWSGRFYSLWDTGYAKIHIPIIASVSEHQPTTWVSFFFDLHILVCTFPAGLWFCIKNINDERVFVALYAISAVYFAGVMVRLMLTLTPVVCMLSAIAFSNVFEHYLGDDMKRENPPVEDSSDEDDKRNQGNLYDKAGKVRKHATEQEKTEEGLGPNIKSIVTMLMLMLLMMFAVHCTWVTSNAYSSPSVVLASYNHDGTRNILDDFREAYFWLRQNTDEHARVMSWWDYGYQIAGMANRTTLVDNNTWNNSHIALVGKAMSSNETAAYKIMRTLDVDYVLVIFGGVIGYSGDDINKFLWMVRIAEGEHPKDIRESDYFTPQGEFRVDKAGSPTLLNCLMYKMSYYRFGEMQLDFRTPPGFDRTRNAEIGNKDIKFKHLEEAFTSEHWLVRIYKVKAPDNRETLDHKPRVTNIFPKQKYLSKKTTKRKRGYIKNKLVFKKGKKISKKTV
B2: sodium bicarbonate cotransporter 3 SLC4A7 (protein, UniProt Q9Y6M7 1-1214)
chain: MERFRLEKKLPGPDEEAVVDLGKTSSTVNTKFEKEELESHRAVYIGVHVPFSKESRRRHRHRGHKHHHRRRKDKESDKEDGRESPSYDTPSQRVQFILGTEDDDEEHIPHDLFTEMDELCYRDGEEYEWKETARWLKFEEDVEDGGDRWSKPYVATLSLHSLFELRSCILNGTVMLDMRASTLDEIADMVLDNMIASGQLDESIRENVREALLKRHHHQNEKRFTSRIPLVRSFADIGKKHSDPHLLERNGEGLSASRHSLRTGLSASNLSLRGESPLSLLLGHLLPSSRAGTPAGSRCTTPVPTPQNSPPSSPSISRLTSRSSQESQRQAPELLVSPASDDIPTVVIHPPEEDLEAALKGEEQKNEENVDLTPGILASPQSAPGNLDNSKSGEIKGNGSGGSRENSTVDFSKVDMNFMRKIPTGAEASNVLVGEVDFLERPIIAFVRLAPAVLLTGLTEVPVPTRFLFLLLGPAGKAPQYHEIGRSIATLMTDEIFHDVAYKAKDRNDLLSGIDEFLDQVTVLPPGEWDPSIRIEPPKSVPSQEKRKIPVFHNGSTPTLGETPKEAAHHAGPELQRTGRLFGGLILDIKRKAPFFLSDFKDALSLQCLASILFLYCACMSPVITFGGLLGEATEGRISAIESLFGASLTGIAYSLFAGQPLTILGSTGPVLVFEKILYKFCRDYQLSYLSLRTSIGLWTSFLCIVLVATDASSLVCYITRFTEEAFAALICIIFIYEALEKLFDLGETYAFNMHNNLDKLTSYSCVCTEPPNPSNETLAQWKKDNITAHNISWRNLTVSECKKLRGVFLGSACGHHGPYIPDVLFWCVILFFTTFFLSSFLKQFKTKRYFPTKVRSTISDFAVFLTIVIMVTIDYLVGVPSPKLHVPEKFEPTHPERGWIISPLGDNPWWTLLIAAIPALLCTILIFMDQQITAVIINRKEHKLKKGAGYHLDLLMVGVMLGVCSVMGLPWFVAATVLSISHVNSLKVESECSAPGEQPKFLGIREQRVTGLMIFILMGLSVFMTSVLKFIPMPVLYGVFLYMGVSSLKGIQLFDRIKLFGMPAKHQPDLIYLRYVPLWKVHIFTVIQLTCLVLLWVIKVSAAAVVFPMMVLALVFVRKLMDLCFTKRELSWLDDLMPESKKKKEDDKKKKEKEEAERMLQDDDDTVHLPFEGGSLLQIPVKALKYSPDKPVSVKISFEDEPRKKYVDAETSL
B3: STT3A (protein, UniProt P46977 1-705)
chain: MTKFGFLRLSYEKQDTLLKLLILSMAAVLSFSTRLFAVLRFESVIHEFDPYFNYRTTRFLAEEGFYKFHNWFDDRAWYPLGRIIGGTIYPGLMITSAAIYHVLHFFHITIDIRNVCVFLAPLFSSFTTIVTYHLTKELKDAGAGLLAAAMIAVVPGYISRSVAGSYDNEGIAIFCMLLTYYMWIKAVKTGSICWAAKCALAYFYMVSSWGGYVFLINLIPLHVLVLMLTGRFSHRIYVAYCTVYCLGTILSMQISFVGFQPVLSSEHMAAFGVFGLCQIHAFVDYLRSKLNPQQFEVLFRSVISLVGFVLLTVGALLMLTGKISPWTGRFYSLLDPSYAKNNIPIIASVSEHQPTTWSSYYFDLQLLVFMFPVGLYYCFSNLSDARIFIIMYGVTSMYFSAVMVRLMLVLAPVMCILSGIGVSQVLSTYMKNLDISRPDKKSKKQQDSTYPIKNEVASGMILVMAFFLITYTFHSTWVTSEAYSSPSIVLSARGGDGSRIIFDDFREAYYWLRHNTPEDAKVMSWWDYGYQITAMANRTILVDNNTWNNTHISRVGQAMASTEEKAYEIMRELDVSYVLVIFGGLTGYSSDDINKFLWMVRIGGSTDTGKHIKENDYYTPTGEFRVDREGSPVLLNCLMYKMCYYRFGQVYTEAKRPPGFDRVRNAEIGNKDFELDVLEEAYTTEHWLVRIYKVKDLDNRGLSRT
B4: SDF2L1 (protein, UniProt Q9HCN8 29-221)
chain: AKTGAELVTCGSVLKLLNTHHRVRLHSHDIKYGSGSGQQSVTGVEASDDANSYWRIRGGSEGGCPRGSPVRCGQAVRLTHVLTGKNLHTHHFPSPLSNNQEVSAFGEDGEGDDLDLWTVRCSGQHWEREAAVRFQHVGTSVFLSVTGEQYGSPIRGQHEVHGMPSANTHNTWKAMEGIFIKPSVEPSAGHDEL
B5: SEC11 homolog A, the signal peptidase complex subunit SEC11A (protein, UniProt P67812 1-179)
chain: MLSLDFLDDVRRMNKRQLYYQVLNFGMIVSSALMIWKGLMVITGSESPIVVVLSGSMEPAFHRGDLLFLTNRVEDPIRVGEIVVFRIEGREIPIVHRVLKIHEKQNGHIKFLTKGDNNAVDDRGLYKQGQHWLEKKDVVGRARGFVPYIGIVTILMNDYPKFKYAVLFLLGLFVLVHRE

Tests used:
[1] = molecular target: double HA-epitope tagged p7 (HAHA-p7) of HCV Jc1 (hepatitis C virus Jc1 (genotype 2a)); test: affinity purification with mass spectrometry; anti-HA agarose, overnight 4 °C, on pre-cleared lysates (50 mM HEPES pH 7.4, 150 mM NaCl, 10% glycerol, 1% NP-40, 1 mM CaCl2) of Huh-7.5 cells 48 h after transfection with HA-tagged Jc1 RNA of parental background (HA-E2, HAHA-p7, HA-NS4B Q31R) or of Huh-7.5/HA-ApoE cells with Jc1; label-free LC-MS/MS against untagged controls; two data sets for HA-E2
[2] = molecular target: HA-tagged envelope protein 2 (HA-E2) of HCV Jc1 (hepatitis C virus Jc1 (genotype 2a)); test: as above
[3] = molecular target: HA-tagged envelope protein 2 (HA-E2) of HCV Jc1 (hepatitis C virus Jc1 (genotype 2a)); test: affinity purification with mass spectrometry; as a1, cells replicating the HA-E2 virus with the core P138A P143A double mutation (core DP); control: the cognate untagged mutant virus; second data set
[4] = molecular target: HA-tagged envelope protein 2 (HA-E2) of HCV Jc1 (hepatitis C virus Jc1 (genotype 2a)); test: affinity purification with mass spectrometry; as a1, cells replicating the HA-E2 virus with the E1 K179Q mutation; control: the cognate untagged mutant virus; second data set
[5] = molecular target: HA-tagged envelope protein 2 (HA-E2) of HCV Jc1 (hepatitis C virus Jc1 (genotype 2a)); test: affinity purification with mass spectrometry; as a1, cells replicating the HA-E2 virus with core residues 69-72 changed to alanines (core C69-72A); control: the cognate untagged mutant virus; second data set

Binder	binding [1]	binding [2]	binding [3]	other results
B1	binds	binds	binds	–
B2	–	–	–	binding [4]: binds
B3	–	binds	binds	–
B4	–	–	–	binding [5]: binds
B5	binds	–	–	–
